The exact form of at least one protein or probe is not confirmed. Results from cells or extracts need not show a direct contact. For some of these results: Negatives hold for the conditions tested. For some of these results: At least one verdict was read from the data and is not stated in words by the source. For some of these results: The comparison behind a weaker result is the experiment's own reference, which may not be listed here.
How the values were obtained:
[1] = target: KIT on GIST-T1 cells (human (GIST-T1)) (UniProt P10721); assay: flow cytometry; conditions: protein on the cell surface, single-stranded DNA
[2] = target: KIT on GIST-CN16 cells (human (GIST-CN16, patient-derived xenograft)) (UniProt P10721); assay: flow cytometry; conditions: protein on the cell surface, single-stranded DNA
[3] = target: KIT on GIST-430/654 cells (human (GIST-430/654)) (UniProt P10721); assay: flow cytometry; conditions: protein on the cell surface, single-stranded DNA
[4] = target: murine Kit V558del on KitV558del/+ tumor cells del562-562 (mouse (KitV558del/+)) (UniProt P05532); assay: flow cytometry; conditions: dissociated tumor cells; protein on the cell surface; label: Cy5 in flow cytometry; single-stranded DNA
[5] = target: KIT on GIST-T1 cells (human (GIST-T1)) (UniProt P10721); assay: competition with a labelled probe; conditions: pretreated with anti-KIT antibody (epitope aa 350-440); protein on the cell surface; label: Cy5 in flow cytometry; single-stranded DNA
[6] = target: KIT on GIST-430/654 cells (human (GIST-430/654)) (UniProt P10721); assay: competition with a labelled probe; conditions: pretreated with anti-KIT antibody (epitope aa 350-440); protein on the cell surface; label: Cy5 in flow cytometry; single-stranded DNA
[7] = target: KIT on GIST-430 cells (human (GIST-430)) (UniProt P10721); assay: flow cytometry; conditions: 250 nM aptamer, protein on the cell surface, label: Cy5 in flow cytometry, single-stranded DNA
[8] = mc-vc-PAB-MMAE drug conjugate, attachment position not stated in material, label: Cy5
[9] = 250 nM aptamer, label: Cy5 in flow cytometry
[10] = 250 nM aptamer, lost affinity, label: Cy5 in flow cytometry

Sequences of proteins named here, by UniProt entry; tags and fusion partners are left off. A line that says so, or that is headed by a name, gives the form on record, which may keep a tag or linker. Residues count along the entry.
UniProt P10721, 26-976: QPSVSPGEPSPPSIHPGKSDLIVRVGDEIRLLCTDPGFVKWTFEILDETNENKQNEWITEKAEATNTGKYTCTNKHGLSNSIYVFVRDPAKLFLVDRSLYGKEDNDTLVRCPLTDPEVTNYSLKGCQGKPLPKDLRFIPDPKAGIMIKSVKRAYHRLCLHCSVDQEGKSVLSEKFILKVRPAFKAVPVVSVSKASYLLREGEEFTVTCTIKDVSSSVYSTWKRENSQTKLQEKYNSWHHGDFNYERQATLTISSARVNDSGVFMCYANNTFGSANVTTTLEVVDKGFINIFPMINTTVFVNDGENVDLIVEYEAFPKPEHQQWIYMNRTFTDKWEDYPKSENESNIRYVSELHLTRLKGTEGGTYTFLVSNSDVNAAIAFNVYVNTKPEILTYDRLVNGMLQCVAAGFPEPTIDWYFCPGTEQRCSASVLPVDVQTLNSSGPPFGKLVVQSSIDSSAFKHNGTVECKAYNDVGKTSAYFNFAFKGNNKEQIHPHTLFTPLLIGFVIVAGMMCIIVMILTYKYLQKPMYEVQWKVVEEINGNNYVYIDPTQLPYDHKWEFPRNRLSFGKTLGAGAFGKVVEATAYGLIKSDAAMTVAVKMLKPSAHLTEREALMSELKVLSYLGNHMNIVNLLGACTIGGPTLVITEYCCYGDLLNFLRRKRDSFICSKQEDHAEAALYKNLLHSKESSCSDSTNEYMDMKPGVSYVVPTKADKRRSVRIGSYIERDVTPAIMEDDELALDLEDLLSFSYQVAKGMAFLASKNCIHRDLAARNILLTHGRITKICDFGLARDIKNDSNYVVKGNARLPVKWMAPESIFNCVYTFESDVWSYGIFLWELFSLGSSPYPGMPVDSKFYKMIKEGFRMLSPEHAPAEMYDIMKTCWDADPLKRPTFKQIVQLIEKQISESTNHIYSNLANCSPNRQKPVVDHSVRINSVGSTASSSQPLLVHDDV
UniProt P05532, other isoform, or with tags, fused parts or gaps, stated change not applied: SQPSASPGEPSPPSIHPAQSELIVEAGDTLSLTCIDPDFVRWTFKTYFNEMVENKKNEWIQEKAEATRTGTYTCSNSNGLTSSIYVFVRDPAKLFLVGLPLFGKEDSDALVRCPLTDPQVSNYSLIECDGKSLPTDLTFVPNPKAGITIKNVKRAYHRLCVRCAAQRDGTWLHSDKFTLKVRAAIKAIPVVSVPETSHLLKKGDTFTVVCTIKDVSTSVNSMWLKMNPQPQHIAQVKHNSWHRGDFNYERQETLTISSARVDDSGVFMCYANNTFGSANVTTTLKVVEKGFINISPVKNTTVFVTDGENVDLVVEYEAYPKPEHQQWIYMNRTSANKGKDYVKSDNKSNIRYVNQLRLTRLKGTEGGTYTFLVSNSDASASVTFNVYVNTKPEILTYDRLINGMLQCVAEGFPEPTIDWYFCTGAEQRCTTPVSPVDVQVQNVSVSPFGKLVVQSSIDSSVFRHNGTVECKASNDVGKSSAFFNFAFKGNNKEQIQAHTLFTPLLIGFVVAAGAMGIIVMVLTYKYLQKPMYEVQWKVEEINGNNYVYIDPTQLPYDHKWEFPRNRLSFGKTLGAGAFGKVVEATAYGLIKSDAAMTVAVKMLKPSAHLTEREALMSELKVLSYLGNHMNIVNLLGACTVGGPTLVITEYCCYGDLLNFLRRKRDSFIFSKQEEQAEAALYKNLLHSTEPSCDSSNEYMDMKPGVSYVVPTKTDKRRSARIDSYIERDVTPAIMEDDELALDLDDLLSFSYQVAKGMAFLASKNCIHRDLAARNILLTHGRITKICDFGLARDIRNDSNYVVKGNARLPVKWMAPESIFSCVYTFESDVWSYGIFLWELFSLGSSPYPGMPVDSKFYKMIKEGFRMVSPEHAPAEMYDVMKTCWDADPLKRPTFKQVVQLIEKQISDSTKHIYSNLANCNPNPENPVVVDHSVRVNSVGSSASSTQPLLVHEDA

ATTCAAGGGGCCGGGGCAAGGGGGGGGTACCGTGGTAGGACATAGT [KIT-d-MMAE]
binding result [1, 8]: binds | binding result [2, 8]: binds | binding result [3, 8]: binds

ATTCAAGGGGCCGGGGCAAGGGGGGGGTACCGTGGTAGGACATAGT [KIT-d]
binding result ([2]; label: Cy5 in flow cytometry): binds | binding result [4]: binds | binding result [5]: binds more weakly | binding result [6]: binds more weakly

GAGGCATACCAGCTTATTCAAGGGGCCGGGGCAAGGGGGGGGTACCGTGGTAGGAC [KIT-a]
binding result [7]: binds more weakly | binding result [1, 9]: binds more weakly | binding result [3, 9]: binds more weakly

GAGGCATACCAGCTTATTCAAGGGGCCGGGGCAAGGGGGGGGTACCGTGGTAGGACATAGTAAGTGCAATCTGCGAA [KIT-w]
binding result [7]: binds | binding result [1, 9]: binds | binding result [3, 9]: binds

GAGGCATACCAGCTTATTCAATACCGTGGTAGGACATAGTAAGTGCAATCTGCGAA [KIT-c]
binding result ([7]; lost affinity): no binding | binding result [1, 10]: no binding | binding result [3, 10]: no binding

GGGGCCGGGGCAAGGGGGGGGTACCGTGGTAGGACATAGTAAGTGCAATCTGCGAA [KIT-b]
binding result [7]: binds more weakly | binding result [1, 9]: binds more weakly | binding result [3, 9]: binds more weakly
